# PMC11161652, “ASXLs binding to the PHD2/3 fingers of MLL4 provides a mechanism for the recruitment of BAP1 to active enhancers” (Nature Communications, 2024)
# The chains behind the UniProt entries cited, without tags or fusion partners. Where a name states a change or a piece, a line headed by the entry shows the natural chain unless it says otherwise. Residues count along the entry.
# UniProt O14686, residues 227-324: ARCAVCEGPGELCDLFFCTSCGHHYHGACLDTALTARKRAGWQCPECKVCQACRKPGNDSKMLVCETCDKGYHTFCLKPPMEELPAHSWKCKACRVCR
# UniProt Q76L83: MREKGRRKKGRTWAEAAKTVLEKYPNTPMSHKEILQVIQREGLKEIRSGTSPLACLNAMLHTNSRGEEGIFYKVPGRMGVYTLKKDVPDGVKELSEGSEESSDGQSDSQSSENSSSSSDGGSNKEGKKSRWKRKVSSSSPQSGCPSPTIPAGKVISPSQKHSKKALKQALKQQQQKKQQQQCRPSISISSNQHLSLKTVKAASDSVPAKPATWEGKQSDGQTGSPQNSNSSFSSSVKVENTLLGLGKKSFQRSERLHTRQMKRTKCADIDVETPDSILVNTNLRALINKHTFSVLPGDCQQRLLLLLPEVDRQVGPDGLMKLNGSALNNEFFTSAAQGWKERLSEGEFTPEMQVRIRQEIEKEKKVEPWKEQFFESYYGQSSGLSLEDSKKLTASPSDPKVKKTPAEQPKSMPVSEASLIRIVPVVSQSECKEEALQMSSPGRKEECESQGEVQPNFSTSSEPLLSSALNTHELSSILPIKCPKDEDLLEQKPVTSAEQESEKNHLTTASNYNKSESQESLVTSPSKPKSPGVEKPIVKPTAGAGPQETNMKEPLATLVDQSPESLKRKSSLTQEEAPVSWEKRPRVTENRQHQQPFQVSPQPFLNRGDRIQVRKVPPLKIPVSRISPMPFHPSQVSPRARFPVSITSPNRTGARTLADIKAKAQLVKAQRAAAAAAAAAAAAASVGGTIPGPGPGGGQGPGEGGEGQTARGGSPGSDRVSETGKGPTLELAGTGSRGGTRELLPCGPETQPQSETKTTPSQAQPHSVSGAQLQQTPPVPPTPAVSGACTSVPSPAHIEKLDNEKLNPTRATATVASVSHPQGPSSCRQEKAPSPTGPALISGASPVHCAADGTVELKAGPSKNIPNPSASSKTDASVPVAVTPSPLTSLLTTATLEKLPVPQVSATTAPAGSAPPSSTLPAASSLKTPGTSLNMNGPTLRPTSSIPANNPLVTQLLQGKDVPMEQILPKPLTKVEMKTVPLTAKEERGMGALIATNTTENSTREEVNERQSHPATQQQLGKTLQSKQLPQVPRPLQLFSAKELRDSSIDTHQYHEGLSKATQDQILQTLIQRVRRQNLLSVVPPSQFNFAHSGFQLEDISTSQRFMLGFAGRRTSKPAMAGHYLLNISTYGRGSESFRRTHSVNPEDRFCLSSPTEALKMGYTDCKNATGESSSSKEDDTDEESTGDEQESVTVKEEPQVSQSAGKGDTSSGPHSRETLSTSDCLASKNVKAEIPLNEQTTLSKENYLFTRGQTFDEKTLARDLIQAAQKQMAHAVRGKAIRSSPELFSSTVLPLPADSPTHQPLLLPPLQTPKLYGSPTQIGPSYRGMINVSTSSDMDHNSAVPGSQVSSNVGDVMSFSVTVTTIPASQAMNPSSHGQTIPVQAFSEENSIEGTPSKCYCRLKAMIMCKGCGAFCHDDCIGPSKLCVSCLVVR
# Results are given in words; binding and its absence hold for the method and conditions named. Binding seen in cells or lysates may run through a third protein. For some assays here: Where a sequence is shown, tags or fusion partners need not be part of it.
# How the values were obtained:
# [1] = target: T1, GST-MLL3_(PHD2/3), wild type (human) (UniProt Q8NEZ4); assay: pull-down; about 9 μg GST-MLL3 PHD2/3 or GST-MLL4 PHD2/3 (WT or mutants) on GSH resin, incubated 3 h at 4 °C with lysate of HEK293FT cells expressing Myc-ASXL1, Myc-ASXL2 or Myc-ASXL2ΔMBH; 5 washes; western blot; only the target purified
# T1 sequence: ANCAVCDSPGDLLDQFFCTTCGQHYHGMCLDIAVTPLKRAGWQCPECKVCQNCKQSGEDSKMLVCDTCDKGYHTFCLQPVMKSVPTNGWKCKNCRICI
# [2] = target: GST-MLL4_(PHD2/3), wild type (human) (UniProt O14686); assay: as above
substance,measurement,setting,value
Myc-ASXL2ΔMBH (from UniProt Q76L83),binding,[1],no binding
same,binding,[2],no binding
